The list shows a part of the results.
What was measured:
Experiment in all cases: log2 fold change, soluble protein after heating vs DMSO (PISA); higher = thermal stabilisation; K562 lysate, 10 uM; active = over 0.2 and 3.5 SD of the protein, either way, in both replicates (recomputed)
erlotinib = compound: C#Cc1cccc(Nc2ncnc3cc(OCCOC)c(OCCOC)cc23)c1 [erlotinib]
How it was run: (§1)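 Values give the log-two fold change in thermal stability against solvent controls, from duplicates. Crude K562 extract at 1 mg/mL protein, made by dounce homogenisation in PBS pH 7.4 with 1 mM MgCl2, was treated with 10 μM compound for 30 min. After 3 min heating across 48°C-58°C, aliquots were pooled, adjusted to 0.5% NP-40 at 4°C and centrifuged at 21,000xg for 90 min. The supernatant was measured by TMTpro 16plex LC-MS/MS with channel sums equalised.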

Amino acid sequences for entries named in this document (tags omitted). A change or cut given only in a name is not applied to a line headed by its entry.
UniProt Q9BYE7: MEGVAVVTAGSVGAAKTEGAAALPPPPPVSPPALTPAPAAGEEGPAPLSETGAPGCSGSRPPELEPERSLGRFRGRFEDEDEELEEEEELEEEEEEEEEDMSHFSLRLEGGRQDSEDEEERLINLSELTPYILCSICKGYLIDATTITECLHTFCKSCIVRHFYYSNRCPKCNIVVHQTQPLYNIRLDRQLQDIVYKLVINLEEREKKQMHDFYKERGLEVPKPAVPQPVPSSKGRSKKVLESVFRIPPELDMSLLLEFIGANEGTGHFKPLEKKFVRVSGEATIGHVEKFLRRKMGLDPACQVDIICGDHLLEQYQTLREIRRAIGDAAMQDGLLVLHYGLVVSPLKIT
UniProt P16118: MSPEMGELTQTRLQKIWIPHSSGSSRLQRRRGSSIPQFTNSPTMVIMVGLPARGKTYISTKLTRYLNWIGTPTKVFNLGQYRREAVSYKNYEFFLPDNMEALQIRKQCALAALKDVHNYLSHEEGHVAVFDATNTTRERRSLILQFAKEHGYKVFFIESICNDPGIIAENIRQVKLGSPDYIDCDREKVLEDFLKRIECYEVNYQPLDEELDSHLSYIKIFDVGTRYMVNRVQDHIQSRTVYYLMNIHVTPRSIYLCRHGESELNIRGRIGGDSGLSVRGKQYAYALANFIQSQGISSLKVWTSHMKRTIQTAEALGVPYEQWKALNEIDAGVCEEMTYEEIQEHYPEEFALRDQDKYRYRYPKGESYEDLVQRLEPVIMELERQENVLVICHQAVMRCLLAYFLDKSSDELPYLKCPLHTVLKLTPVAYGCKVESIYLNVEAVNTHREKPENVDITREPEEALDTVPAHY
UniProt O00330, whole entry, looked up: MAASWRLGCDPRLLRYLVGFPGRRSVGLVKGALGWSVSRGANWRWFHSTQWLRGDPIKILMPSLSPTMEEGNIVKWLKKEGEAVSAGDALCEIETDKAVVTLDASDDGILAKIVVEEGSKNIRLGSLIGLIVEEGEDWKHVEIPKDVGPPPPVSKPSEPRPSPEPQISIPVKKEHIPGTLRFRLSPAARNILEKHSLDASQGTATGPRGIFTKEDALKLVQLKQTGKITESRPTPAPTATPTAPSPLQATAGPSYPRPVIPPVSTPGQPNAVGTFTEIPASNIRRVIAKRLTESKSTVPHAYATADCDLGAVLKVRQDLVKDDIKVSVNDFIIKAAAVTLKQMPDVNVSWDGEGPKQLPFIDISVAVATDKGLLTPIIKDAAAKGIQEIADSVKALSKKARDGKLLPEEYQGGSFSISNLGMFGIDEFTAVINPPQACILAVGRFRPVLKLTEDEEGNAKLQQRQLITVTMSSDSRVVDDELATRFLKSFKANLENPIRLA
UniProt Q86YH6: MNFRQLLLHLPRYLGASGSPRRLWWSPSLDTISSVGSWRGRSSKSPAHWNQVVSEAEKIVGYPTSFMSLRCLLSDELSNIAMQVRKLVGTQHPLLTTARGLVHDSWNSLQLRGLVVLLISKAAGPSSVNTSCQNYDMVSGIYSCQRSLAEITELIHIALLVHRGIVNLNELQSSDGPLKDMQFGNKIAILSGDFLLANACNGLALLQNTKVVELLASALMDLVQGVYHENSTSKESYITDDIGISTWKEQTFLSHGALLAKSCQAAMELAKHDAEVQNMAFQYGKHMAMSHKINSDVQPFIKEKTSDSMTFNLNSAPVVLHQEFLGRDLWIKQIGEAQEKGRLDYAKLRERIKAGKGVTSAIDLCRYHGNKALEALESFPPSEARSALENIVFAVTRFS
UniProt P57721, whole entry, looked up: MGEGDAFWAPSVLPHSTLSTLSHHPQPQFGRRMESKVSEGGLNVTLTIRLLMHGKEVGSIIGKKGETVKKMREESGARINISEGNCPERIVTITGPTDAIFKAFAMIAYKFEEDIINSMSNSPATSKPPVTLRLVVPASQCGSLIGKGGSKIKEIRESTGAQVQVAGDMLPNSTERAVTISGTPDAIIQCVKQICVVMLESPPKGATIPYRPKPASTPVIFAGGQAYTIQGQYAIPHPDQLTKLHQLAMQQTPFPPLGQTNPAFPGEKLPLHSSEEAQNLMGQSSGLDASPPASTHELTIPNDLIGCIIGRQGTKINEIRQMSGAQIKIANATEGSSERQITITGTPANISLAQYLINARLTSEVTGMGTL
UniProt P27815: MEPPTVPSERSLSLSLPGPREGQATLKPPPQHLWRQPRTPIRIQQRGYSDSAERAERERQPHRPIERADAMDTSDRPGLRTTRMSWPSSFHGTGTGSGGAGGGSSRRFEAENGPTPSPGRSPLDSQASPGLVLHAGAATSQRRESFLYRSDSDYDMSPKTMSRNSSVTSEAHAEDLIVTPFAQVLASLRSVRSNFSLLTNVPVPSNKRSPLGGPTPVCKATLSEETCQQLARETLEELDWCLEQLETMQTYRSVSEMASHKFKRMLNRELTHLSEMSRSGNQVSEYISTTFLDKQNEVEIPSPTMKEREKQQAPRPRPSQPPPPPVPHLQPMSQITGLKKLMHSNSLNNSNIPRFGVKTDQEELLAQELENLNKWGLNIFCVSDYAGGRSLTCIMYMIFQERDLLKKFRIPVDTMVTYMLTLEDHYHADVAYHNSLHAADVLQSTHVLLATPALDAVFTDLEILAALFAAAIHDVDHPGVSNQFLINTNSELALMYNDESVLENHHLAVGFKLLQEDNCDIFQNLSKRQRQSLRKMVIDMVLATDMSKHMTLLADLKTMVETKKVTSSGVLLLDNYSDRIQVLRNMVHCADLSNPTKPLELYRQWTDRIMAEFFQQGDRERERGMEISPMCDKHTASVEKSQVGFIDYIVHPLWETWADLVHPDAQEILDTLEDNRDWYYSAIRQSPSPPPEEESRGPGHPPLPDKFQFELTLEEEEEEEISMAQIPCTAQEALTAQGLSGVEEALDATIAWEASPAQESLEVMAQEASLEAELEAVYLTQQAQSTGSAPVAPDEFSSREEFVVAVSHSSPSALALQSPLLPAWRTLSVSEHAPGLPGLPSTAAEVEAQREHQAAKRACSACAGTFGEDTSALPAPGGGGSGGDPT
UniProt Q9H792: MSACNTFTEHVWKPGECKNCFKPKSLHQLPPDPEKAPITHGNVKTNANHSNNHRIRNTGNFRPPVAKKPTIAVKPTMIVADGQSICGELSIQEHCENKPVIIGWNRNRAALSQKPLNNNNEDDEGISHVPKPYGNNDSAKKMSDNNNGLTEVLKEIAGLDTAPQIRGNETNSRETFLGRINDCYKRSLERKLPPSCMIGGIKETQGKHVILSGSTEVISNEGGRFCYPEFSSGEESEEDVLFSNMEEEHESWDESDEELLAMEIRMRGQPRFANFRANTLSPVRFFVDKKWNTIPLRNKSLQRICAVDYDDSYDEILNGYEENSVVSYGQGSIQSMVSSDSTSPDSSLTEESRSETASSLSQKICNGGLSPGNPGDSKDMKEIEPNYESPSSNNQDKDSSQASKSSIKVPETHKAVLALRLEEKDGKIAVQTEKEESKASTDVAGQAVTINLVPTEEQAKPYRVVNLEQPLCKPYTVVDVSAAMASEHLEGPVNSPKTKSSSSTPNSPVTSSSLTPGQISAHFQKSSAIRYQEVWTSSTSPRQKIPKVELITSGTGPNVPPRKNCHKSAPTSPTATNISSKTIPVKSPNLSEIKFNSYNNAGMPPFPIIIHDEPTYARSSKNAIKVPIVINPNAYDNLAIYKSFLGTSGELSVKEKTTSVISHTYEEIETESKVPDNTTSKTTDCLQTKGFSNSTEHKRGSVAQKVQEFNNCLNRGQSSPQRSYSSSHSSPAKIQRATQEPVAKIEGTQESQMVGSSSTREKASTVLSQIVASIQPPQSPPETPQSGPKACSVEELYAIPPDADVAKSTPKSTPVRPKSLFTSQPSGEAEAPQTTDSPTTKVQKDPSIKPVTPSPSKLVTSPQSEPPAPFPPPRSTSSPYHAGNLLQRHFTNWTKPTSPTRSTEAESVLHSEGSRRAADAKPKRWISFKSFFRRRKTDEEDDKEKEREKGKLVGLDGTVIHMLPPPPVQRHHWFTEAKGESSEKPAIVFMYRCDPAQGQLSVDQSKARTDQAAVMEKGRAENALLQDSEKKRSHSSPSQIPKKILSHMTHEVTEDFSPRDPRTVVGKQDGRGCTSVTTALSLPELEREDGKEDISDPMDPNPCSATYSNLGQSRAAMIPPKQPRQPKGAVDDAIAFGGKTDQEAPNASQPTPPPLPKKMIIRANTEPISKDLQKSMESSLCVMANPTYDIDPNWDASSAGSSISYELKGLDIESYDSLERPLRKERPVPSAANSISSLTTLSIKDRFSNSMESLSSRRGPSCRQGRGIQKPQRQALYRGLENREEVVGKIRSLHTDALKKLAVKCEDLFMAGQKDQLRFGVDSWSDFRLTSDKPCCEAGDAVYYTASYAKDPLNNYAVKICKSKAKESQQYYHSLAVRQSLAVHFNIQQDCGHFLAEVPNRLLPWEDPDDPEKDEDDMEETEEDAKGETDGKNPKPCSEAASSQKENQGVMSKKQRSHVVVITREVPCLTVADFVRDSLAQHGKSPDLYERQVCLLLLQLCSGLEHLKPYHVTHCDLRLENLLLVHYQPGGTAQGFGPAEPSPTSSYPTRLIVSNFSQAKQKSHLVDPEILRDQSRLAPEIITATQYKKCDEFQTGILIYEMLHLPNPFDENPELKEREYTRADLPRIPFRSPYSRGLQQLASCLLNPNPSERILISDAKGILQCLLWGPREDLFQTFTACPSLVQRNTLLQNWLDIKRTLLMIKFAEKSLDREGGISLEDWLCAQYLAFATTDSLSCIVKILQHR

[1] = compound: C/C(=N\NC(=O)C1=CC(=CC=C1)S(=O)(=O)N2CCOCC2)/C3=C(C=CC(=C3)Cl)O
How it was run: as §1

[2] = compound: C1=CC(=CC=C1C2=NC3=C(N2)C=C(C=C3)C(=O)N)OC4=CC=C(C=C4)Cl
How it was run: as §1

[3] = compound: C1=CC2=C(C=CC(=C2)/C=C\3/C(=O)NC(=NCC4=CC=CS4)S3)N=C1
How it was run: as §1

[4] = compound: C1=CC=C(C=C1)C2=NC(=C(N2)C3=CC=NC=C3)C4=CC(=C(C=C4)Cl)O
How it was run: as §1

[5] = compound: C1=CC=C2C(=C1)C3=NNC4=CC=CC(=C43)C2=O
How it was run: as §1

IRAK-1-4 Inhibitor I = compound: C1COCCN1CCN2C3=CC=CC=C3N=C2NC(=O)C4=CC(=CC=C4)[N+](=O)[O-] [IRAK-1-4 Inhibitor I]
How it was run: as §1

[6] = compound: CC(=O)c1cnc2ccc(-c3cc(Cl)c(O)c(Cl)c3)nc2c1N[C@H]1CC[C@H](CN(C)C)CC1
How it was run: as §1

ralimetinib = compound: CC(C)(C)Cn1c(N)nc2ccc(-c3[nH]c(C(C)(C)C)nc3-c3ccc(F)cc3)nc21 [ralimetinib]
How it was run: as §1

[7] = compound: CC(C)(O)CC(=O)NCCn1ccc2ncnc(Nc3ccc(Oc4cccc(C(F)(F)F)c4)c(Cl)c3)c21
How it was run: as §1

[8] = compound: CC(C)C1=C2N=C(C=C(N2N=C1)NCC3=CC=CC=C3)NCCCCCCN
How it was run: as §1

[9] = compound: CC1=C(C(CC(=O)N1)C2=CC=C(C=C2)C(F)(F)F)C(=O)NC3=C(C=C4C(=C3)C=NN4)F
How it was run: as §1

[10] = compound: CC1=C(C2=C(C=C1)C(=O)C3=CC=CC=C3N2CCCN)C
How it was run: as §1

[11] = compound: CC1=C(C=C(C=C1)NC(=O)C2=CC(=CC=C2)C(C)(C)C#N)NC3=CC4=C(C=C3)N=CN(C4=O)C
How it was run: as §1

[12] = compound: CC1=C(C=C(C=C1)NC(=O)C2=CC(=CC=C2)N(C)C)NC(=O)C3=CC=C(C=C3)O
How it was run: as §1

[13] = compound: CC1=CC=C(C=C1)SC2=C3C=C(SC3=CN=C2)C(=O)N
How it was run: as §1

[14] = compound: C1=CC2=NC=CN=C2C=C1/C=C/3\C(=O)NC(=O)S3
How it was run: as §1

[15] = compound: C1CCN(C1)C(=O)NC2=CC=CC(=C2)NC3=NC=C(C(=N3)NCCC4=CN=CN4)Br
How it was run: as §1

[16] = compound: C1CN(CCC1(CC2=CC=C(C=C2)Cl)N)C3=NC=NC4=C3C=CN4
How it was run: as §1

ibrutinib = compound: C=CC(=O)N1CCC[C@@H](n2nc(-c3ccc(Oc4ccccc4)cc3)c3c(N)ncnc32)C1 [ibrutinib]
How it was run: as §1

Measured: log2 fold change

PCGF6 (UniProt Q9BYE7)
inactive: erlotinib 0.039 | [1] 0.033 | [2] 0.016 | [3] -0.032 | [4] -0.006 | [5] -0.171 | IRAK-1-4 Inhibitor I 0.017 | [6] 0.238 | ralimetinib -0.017 | [7] -0.064 | [8] 0 | [9] -0.031 | [10] -0.011 | [11] 0.129 | [12] 0.104 | [13] 0.118

PFKFB1 (UniProt P16118)
inactive: erlotinib -0.126 | [1] -0.031 | [2] 0.133 | [3] 0.076 | [14] -0.017 | [4] 0.01 | [5] 0.006 | [15] -0.02 | [16] -0.002 | IRAK-1-4 Inhibitor I 0.109 | ibrutinib 0.046 | [6] -0.119 | ralimetinib 0 | [7] 0.013 | [8] -0.044 | [10] -0.06 | [12] -0.018 | [13] -0.23

PDHX (UniProt O00330)
inactive: erlotinib 0 | [1] 0.039 | [2] 0.006 | [3] 0.013 | [14] -0.055 | [4] -0.007 | [5] -0.023 | [15] 0.031 | [16] -0.035 | IRAK-1-4 Inhibitor I -0.014 | ibrutinib 0.005 | [6] 0.004 | ralimetinib -0.013 | [7] -0.009 | [8] 0.007 | [9] 0.014 | [10] 0 | [11] 0.044 | [12] -0.016 | [13] 0.023

PDSS2 (UniProt Q86YH6)
inactive: erlotinib -0.008 | [1] 0.19 | [2] 0.012 | [3] 0.014 | [14] -0.043 | [4] -0.026 | [5] 0.114 | IRAK-1-4 Inhibitor I 0.082 | ibrutinib -0.027 | [6] -0.067 | ralimetinib 0.056 | [7] 0.001 | [8] -0.01 | [9] -0.005 | [10] -0.012 | [11] 0.04 | [12] -0.048 | [13] 0.018

PCBP3 (UniProt P57721)
inactive: erlotinib 0.005 | [1] 0.028 | [2] 0.021 | [3] -0.031 | [14] 0.02 | [4] 0.02 | [5] 0.029 | [15] -0.003 | [16] 0.021 | IRAK-1-4 Inhibitor I -0.005 | ibrutinib -0.026 | [6] -0.007 | ralimetinib -0.005 | [7] -0.021 | [8] 0 | [9] -0.04 | [10] -0.006 | [11] 0.053 | [12] -0.02 | [13] -0.028

PDE4A (UniProt P27815)
inactive: erlotinib -0.055 | [1] -0.093 | [2] -0.011 | [3] 0.363 | [14] -0.013 | [4] 0.025 | [5] -0.077 | [15] -0.125 | [16] -0.025 | IRAK-1-4 Inhibitor I -0.002 | ibrutinib 0.156 | ralimetinib -0.091 | [7] 0.009 | [8] -0.082 | [9] 0.071 | [10] 0.009 | [11] -0.042 | [12] 0

PARP9 (UniProt Q8IXQ6)
inactive: erlotinib -0.059 | [1] -0.048 | [2] -0.022 | [3] -0.038 | [14] -0.165 | [4] -0.066 | [5] -0.181 | [15] 0.047 | [16] -0.018 | IRAK-1-4 Inhibitor I 0.073 | ibrutinib -0.2 | [6] -0.215 | ralimetinib 0.04 | [7] -0.162 | [8] 0.121 | [10] 0.083 | [11] 0.136 | [12] -0.021 | [13] -0.131

PEAK1 (UniProt Q9H792)
inactive: erlotinib 0.13 | [1] 0.028 | [2] -0.03 | [3] 0.237 | [14] -0.02 | [4] 0.045 | [5] -0.22 | IRAK-1-4 Inhibitor I -0.061 | ibrutinib 0.105 | ralimetinib -0.038 | [7] 0.037 | [8] -0.135 | [9] 0.098 | [10] -0.026 | [11] -0.06 | [12] 0.097

Source: the supplement of paper PMC10849652
